Results taken from the supplement of paper PMC6078165.
± gives the standard deviation of the averaged measurements. The reference is the same well before dosing, and untreated signal decays as well.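 Labels refer to human fibroblasts, largely primary: uterine (C12385, HUF), lung (H6013), bone (Hs27A), adrenal (HADF), skin (WS1), plus mammary HMF and breast cancer-associated Hs343T. Cancer lines are basal-like or mesenchymal-like triple-negative breast cancer. The paper counts as hits responses shifting over 3x the replicate standard deviation. The tissue of the other fibroblasts is not given here.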

System: MDAMB231
Experiment: relative JC-1 red fluorescence (viability) vs pre-drug, coculture with fibroblast (fraction); higher = more viable cancer cells
Conditions: 10 µM
Experimental: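 JC-1 labelled TNBC cells cocultured 1:1 (1,500 cells each) with CellTrace Violet stained primary or stromal fibroblasts in 384-well plates in FluoroBrite medium, treated with one of 42 anticancer drugs at 0.1, 1, 10 or 100 uM. JC-1 red fluorescence (mitochondrial integrity in cancer cells only) was read by plate reader every 8 h for 72 h. Values are normalised to each well's pre-drug value. The stock of one drug was tenfold lower, so its dose labels may be too high.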

CC(C)(C#N)c1cc(Cn2cncn2)cc(C(C)(C)C#N)c1 [Anastrozole]
relative JC-1 red fluorescence
Conditions | 8 h | 16 h | 24 h | 32 h | 40 h | 48 h | 56 h | 64 h | 72 h
coculture fibroblast: C12385 | 0.799 ± 0.033 | 0.745 ± 0.035 | 0.68 ± 0.048 | 0.663 ± 0.059 | 0.605 ± 0.066 | 0.577 ± 0.071 | 0.533 ± 0.077 | 0.528 ± 0.081 | 0.506 ± 0.081
coculture fibroblast: H6013 | 0.9 ± 0.026 | 0.85 ± 0.057 | 0.818 ± 0.051 | 0.806 ± 0.043 | 0.772 ± 0.05 | 0.75 ± 0.05 | 0.747 ± 0.057 | 0.72 ± 0.051 | 0.682 ± 0.047
coculture fibroblast: H6019 | 0.794 ± 0.018 | 0.733 ± 0.023 | 0.696 ± 0.041 | 0.673 ± 0.049 | 0.636 ± 0.049 | 0.624 ± 0.056 | 0.577 ± 0.063 | 0.559 ± 0.072 | 0.516 ± 0.063
coculture fibroblast: H6076 | 0.935 ± 0.033 | 0.846 ± 0.023 | 0.771 ± 0.025 | 0.738 ± 0.018 | 0.689 ± 0.015 | 0.644 ± 0.023 | 0.608 ± 0.023 | 0.578 ± 0.021 | 0.549 ± 0.024
coculture fibroblast: H6231 | 0.911 ± 0.03 | 0.799 ± 0.026 | 0.736 ± 0.0034 | 0.681 ± 0.02 | 0.632 ± 0.023 | 0.599 ± 0.029 | 0.549 ± 0.04 | 0.524 ± 0.038 | 0.503 ± 0.038
coculture fibroblast: HADF | 0.913 ± 0.014 | 0.882 ± 0.03 | 0.846 ± 0.031 | 0.8 ± 0.037 | 0.761 ± 0.038 | 0.698 ± 0.03 | 0.691 ± 0.034 | 0.68 ± 0.037 | 0.631 ± 0.033
coculture fibroblast: HCFa | 0.887 ± 0.013 | 0.8268 ± 0.001 | 0.7768 ± 0.0077 | 0.741 ± 0.0032 | 0.6774 ± 0.0017 | 0.62 ± 0.0094 | 0.607 ± 0.017 | 0.569 ± 0.011 | 0.522 ± 0.014
coculture fibroblast: HCPF | 0.951 ± 0.026 | 0.845 ± 0.041 | 0.763 ± 0.039 | 0.735 ± 0.025 | 0.681 ± 0.02 | 0.631 ± 0.024 | 0.584 ± 0.017 | 0.551 ± 0.011 | 0.52 ± 0.015
coculture fibroblast: HHSteC | 0.894 ± 0.0007 | 0.839 ± 0.009 | 0.7839 ± 0.0056 | 0.737 ± 0.021 | 0.694 ± 0.012 | 0.667 ± 0.014 | 0.62 ± 0.014 | 0.596 ± 0.0098 | 0.561 ± 0.01
coculture fibroblast: HMF | 0.891 ± 0.014 | 0.8103 ± 0.0048 | 0.731 ± 0.011 | 0.687 ± 0.017 | 0.625 ± 0.0088 | 0.584 ± 0.012 | 0.539 ± 0.01 | 0.516 ± 0.02 | 0.482 ± 0.015
coculture fibroblast: HPFa | 0.966 ± 0.0081 | 0.8958 ± 0.0042 | 0.834 ± 0.011 | 0.789 ± 0.019 | 0.764 ± 0.026 | 0.718 ± 0.025 | 0.674 ± 0.03 | 0.643 ± 0.023 | 0.582 ± 0.015
coculture fibroblast: HUF | 0.8726 ± 0.0043 | 0.717 ± 0.028 | 0.681 ± 0.06 | 0.59 ± 0.041 | 0.522 ± 0.042 | 0.497 ± 0.045 | 0.442 ± 0.045 | 0.426 ± 0.051 | 0.41 ± 0.056
coculture fibroblast: Hs5 | 0.9 ± 0.064 | 0.81 ± 0.031 | 0.7316 ± 0.0031 | 0.681 ± 0.02 | 0.617 ± 0.035 | 0.555 ± 0.054 | 0.511 ± 0.067 | 0.478 ± 0.074 | 0.45 ± 0.079
coculture fibroblast: Hs27A | 0.9013 ± 0.0019 | 0.856 ± 0.018 | 0.817 ± 0.011 | 0.798 ± 0.022 | 0.725 ± 0.011 | 0.647 ± 0.0087 | 0.654 ± 0.013 | 0.625 ± 0.016 | 0.579 ± 0.01
coculture fibroblast: Hs343T | 0.877 ± 0.057 | 0.782 ± 0.055 | 0.707 ± 0.041 | 0.671 ± 0.049 | 0.624 ± 0.055 | 0.571 ± 0.054 | 0.508 ± 0.056 | 0.489 ± 0.058 | 0.453 ± 0.059
coculture fibroblast: WS1 | 0.7905 ± 0.0077 | 0.718 ± 0.012 | 0.646 ± 0.022 | 0.6179 ± 0.005 | 0.57 ± 0.0092 | 0.537 ± 0.012 | 0.492 ± 0.0057 | 0.473 ± 0.0067 | 0.44 ± 0.0072
